The whole screen tested about 400,000 compounds, of which about 5,500 (1.4%) were called active. Inconclusive results, whose numbers are uncertain, are shown with a selection of clear calls. Calls come from the whole dose curve; as a rule, active = well fitted cell-killing curve with a large enough effect; inconclusive = small, poorly fitted or top-dose-only effect, or effect the other way; inactive = flat fitted curve, though single readings scatter. A potency beside an inconclusive call is a rough fit, not a confirmed value.
assay: qHTS assay for MDR1-selective chemotherapeutics: Primary screen using the parental adenocarcinoma cell KB-3-1; conditions: KB-3-1 viability, CellTiter-Glo ATP luminescence, 72 h; activity change, negative = cytotoxic: at 46.1 µM (top of the series); note: nearly all actives have a fitted effect of over 60% in size
How it was run: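 Cells are dispensed, compounds pinned in, plates held at 37 °C for 72 h, then CellTiter-Glo is added and luminescence read after 10 minutes. Cell line: parental KB-3-1 in phenol-red-free DMEM, 10% FBS.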
% is set by controls: 0 for no effect and ±100 for the full control effect; potency is the fitted concentration of half-maximal effect.

SMILES | Potency | activity change, negative = cytotoxic
CCCCCCCCCC[n+]1ccc(/C=C/c2c[nH]c3ccccc23)cc1 | active: 5.17 µM | –
COc1ccc(C(=O)NNC(=S)NC(=O)c2cccnc2)cc1 | – | inconclusive: -1.55%
CS(=O)(=O)NC1c2cccc3cccc(c23)C1Sc1nncn1/N=C/c1ccco1 (centres undefined) | – | inactive: 5.59%
Cc1cc2cc(CN(Cc3cccs3)C(c3nnnn3C(C)(C)C)C(C)C)c3nnnn3c2cc1C (centres undefined) | – | inactive: -2.61%
CC(C)(C)OC(=O)N1CCC(c2c(C(=O)NCCc3ccccc3)cnn2-c2ccc(F)cc2)CC1 | inconclusive: 32.6 µM [cytotoxic, single point] | –
Cn1c(N)c(C(=O)COC(=O)c2ccccc2C(=O)c2ccccc2)c(=O)n(C)c1=O | inconclusive: 23.1 µM [rising, partial curve, poor fit] | –
CC(C)CC1C(=O)N(Cc2cn(Cc3ccco3)nn2)CCS(=O)(=O)N1Cc1ccc(-c2ccc(F)nc2)cc1 (centres undefined) | inconclusive: 6.51 µM [cytotoxic, partial curve, poor fit] | –
COc1ccc(OCC(=O)NCc2ccc3c(c2)CCN3C(=O)c2ccc(F)cc2)cc1 | – | inactive: -2.41%
CCOc1ccc(C(=O)Nc2nc3ccccc3[nH]2)cc1OCC | inconclusive: 7.31 µM [cytotoxic, partial curve, poor fit] | –
c1ccc(-c2cn(-c3ccccc3)c3[n+]2CCS3)cc1 | inconclusive: 18.4 µM [cytotoxic, single point] | –
CCN1C(=O)/C(=C/c2nc3ccccc3c(=O)n2-c2ccc(C)cc2)c2ccccc21 | inconclusive: 4.61 µM [cytotoxic, full curve, poor fit] | –
Cc1ccc2nccc(/C=C/c3ccc(N(C)C)cc3)c2c1 | inconclusive: 29.1 µM [cytotoxic, single point] | –
CCOC(=O)[C@]12CCCC=C1N(Cc1ccc(Cl)cc1Cl)C(=O)[C@H](CC(=O)NCc1cccs1)C2 | inconclusive: 29.1 µM [cytotoxic, single point] | –
Cc1ccc(C[n+]2ccccc2)cc1 | inconclusive: 20.6 µM [cytotoxic, single point] | –
C=CCOc1ccc(/C=N/O)cc1Cl | active: 11.6 µM | –
CCOC(=O)[C@]12CCCC=C1N(CCc1ccc(OC)c(OC)c1)C(=O)[C@H](CC(=O)N1CCCCC1)C2 | – | inactive: -2.31%
OCCN1CCN(C2CCC(c3ccc(F)cc3)c3ccc(F)cc32)CC1 (centres undefined) | inconclusive: 29.1 µM [cytotoxic, single point] | –
Cc1ccc(NC(=S)NC(=O)c2ccc(F)cc2)cc1S(=O)(=O)Nc1ccccc1Cl | active: 23.1 µM | –
O=C(OCC(=O)N1CCCC1=O)c1ccc(Cl)cc1[N+](=O)[O-] | – | inactive: -3.54%

Reprinted at random: two records from the list
SMILES | Potency | activity change, negative = cytotoxic
c1ccc(-c2cn(-c3ccccc3)c3[n+]2CCS3)cc1 | inconclusive: 18.4 µM [cytotoxic, single point] | –
O=C(OCC(=O)N1CCCC1=O)c1ccc(Cl)cc1[N+](=O)[O-] | – | inactive: -3.54%

— PubChem BioAssay AID1347075 (National Center for Advancing Translational Sciences (NCATS), 2019)
